In PubChem BioAssay AID662 (National Center for Advancing Translational Sciences (NCATS), 2007) one finds AC50 data, which are given here for 66 compounds.

Values joined by “and” are separate entries in the source; they are usually repeats but may differ in a detail not shown here. Identical values can stand only once. Some of the results follow. Further columns of the screen follow, without active or inactive calls. Most of these compounds were active or inconclusive in the main read-out, so they are no random draw. Words in brackets tell the shape of the fitted curve; partial curves, single points and poor fits give uncertain potencies.

A word on the AC50: it is the concentration at which the activity in the assay is half-maximal.

The experiment in a line: Cell signaling CRE-BLA (Fsk stim). Particulars: CHO CRE-bla reporter (cAMP response element driving beta-lactamase), forskolin EC10, beta-lactamase ratio; measured here: 460 nm blue channel. An outline of the steps: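 CRE-bla CHO reporter cells treated with compound titration plus EC10 NKH 477 (water-soluble forskolin), incubated 3 h at 37 °C; CCF4 loading 2 h at room temperature, 460/530 nm emission ratio read, AC50 values derived for positive or negative modulators.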
Regarding `O=C(NCc1ccco1)c1scc2c1OCCO2`, the AC50 was 0.501 µM [falling, partial curve, poor fit].
Take `CCc1cc2c(=O)c(-c3nc4ccccc4n3C)c(C)oc2c(CN2CCOCC2)c1O`: the AC50 was 1 µM [falling, partial curve].
The result for `COc1cc(NS(C)(=O)=O)ccc1Nc1c2ccccc2nc2ccccc12` reads 25.1 µM [rising, partial curve].
Then `O=C1N(CN2CCC3(CC2)OCCO3)c2ccccc2C12OCCCO2`, with 0.251 µM [falling, full curve, poor fit]; and `Cc1ccc(C(=O)NC2CCS(=O)(=O)C2)cc1S(=O)(=O)N1CCOCC1` (stereo unspecified), with 2.51 µM [falling, partial curve, poor fit].
The result for `Cc1nc2ccccc2c(=O)n1C1CCCCCC1` reads 10 µM [rising, partial curve]; that for `Cc1onc(-c2c(F)cccc2Cl)c1C(=O)OCC(=O)Nc1c(C)n(C)n(-c2ccccc2)c1=O`, 0.0398 µM [falling, full curve, poor fit].
As to `CC1(C)CC(n2c(NCCO)nc3c(c2=O)C2(CCCC2)Cc2ccccc2-3)CCO1` (stereo unspecified), the half-maximal activity concentration (AC50) is 7.94 µM [rising, partial curve].
For the compound `CS(=O)(=O)N1CCC2(CCCN(C(c3ccccc3)c3ccccc3)C2)CC1`, the AC50 was 12.6 µM [rising, partial curve].
Then `CCN1C(=O)c2cccc3c(S(=O)(=O)Nc4nc(C)cs4)ccc1c23`, with 7.94 µM [rising, partial curve]; and `CCN(CC)S(=O)(=O)c1ccc(Cl)c(C(=O)OC)c1`, with 0.00398 µM [falling, full curve].
Then `CCOC(=O)CSC1=C(C#N)C(c2ccccc2OCC)C(C#N)C(=O)N1` (stereo unspecified), with 10 µM [rising, partial curve]; and `Cc1nn(C)c(C)c1S(=O)(=O)NC1CCCC1`, with 0.158 µM [falling, full curve, poor fit].
Then `CC(NC(=O)c1nn(C)c(=O)c2ccccc12)c1ccc(F)cc1` (stereo unspecified), with 25.1 µM [rising, single point].
As for `O=C(NCCc1c[nH]c2ccccc12)c1cccnc1`, the AC50 was 5.01 µM [rising, single point].
Consider `COc1ccc(C2C(C(=O)NCCN(C)C)c3ccccc3C(=O)N2C)cc1OC` (stereo unspecified), for which the AC50 is 12.6 µM [falling, partial curve].
The result for `Cc1ccc(NC(=O)CN(C)S(=O)(=O)c2cccs2)cc1F` reads 0.398 µM [falling, partial curve].
The result for `Cc1c(C(=O)N2CCc3ccccc32)oc2c1C(=O)CC(C)(C)C2` reads 7.94 µM [falling, partial curve, poor fit]; that for `CCn1cc(C(=O)OCc2ccc(F)cc2)c(=O)c2ccc(C)nc21`, 12.6 µM [rising, partial curve].
Then `Cc1nnc2ccc(N3CCN(c4cccc(C(F)(F)F)c4)CC3)nn12`, with 25.1 µM [falling, single point]; and `COC(=O)c1ccc(CSc2nc3ccccc3c(=O)n2-c2ccc(OC)c(OC)c2)o1`, with 10 µM [rising, partial curve].
For `CSc1nc(N2CCOCC2)c2c3c(sc2n1)CCC3`, the AC50 was 10 µM [rising, partial curve].
For the compound `CCC(=O)Nc1cc(-c2nn(C)c(=O)c3ccccc23)ccc1OC`, the AC50 is 15.8 µM [rising, single point].
The result for `c1ccc(-c2nc3ccccc3nc2N2CCOCC2)cc1` reads 12.6 µM [rising, single point]; that for `Cc1cc(C)n(-c2nc3ccccc3c3nc(C)nn23)n1`, 7.94 µM [rising, partial curve]; that for `CCCc1nc2oc3c(NCCN4CCOCC4)ncnc3c2c2c1CCCC2`, 1.26 µM [rising, full curve, poor fit].
With `c1ccc(-n2ncc3c(NCc4ccc5c(c4)OCO5)ncnc32)cc1`, the half-maximal activity concentration (AC50) is 1.26 µM [rising, full curve].
The result for `NC(=O)SCC(=O)Nc1ccc2ncccc2c1` reads 0.126 µM [falling, partial curve]; that for `CC1(C)CC(=O)C2=C(C1)OC(/N=C/N1CCOCC1)=C(C#N)C2c1ccccc1` (stereo unspecified), 1.58 µM [rising, partial curve]; that for `COc1ccc(-c2nc3cnc(N4CCOCC4)nc3n(C)c2=O)cc1`, 10 µM [rising, partial curve].
Then `COc1ccc2c(OC)c3ccoc3nc2c1OC`, with 25.1 µM [rising, partial curve]; and `COc1ccc(-c2cn3c(C)c(C(=O)Nc4cc(NC(C)=O)ccc4OC)sc3n2)cc1`, with 25.1 µM [rising, single point]; and `CCOC(=O)N1CCN(C(=O)C2CC(c3cc(OC)ccc3OC)=NO2)CC1` (stereo unspecified), with 1 µM [falling, partial curve].
Then `O=C(CSC1=NCCS1)NCc1ccco1`, with 2.51 µM [falling, partial curve, poor fit]; and `Cc1ccc2nc3c(cc(C#N)c(=O)n3CC3CCCO3)c(=O)n2c1` (stereo unspecified), with 5.01 µM [rising, partial curve].
Turning to `Cc1ccccc1-c1noc(-c2ccc(O)cc2)n1`, the AC50 is 0.251 µM [rising, full curve].
Then `CC1(C)CC(NC(=O)CC2CCCCC2)CC(C)(C)N1`, with 0.0398 µM [falling, full curve, poor fit]; and `O=S(=O)(c1ccccc1)N1CCN(Cc2cccc(Cl)c2)CC1`, with 3.16 µM [falling, full curve, poor fit]; and `O=C(Nc1nc2ccc(S(=O)(=O)N3CCCC3)cc2s1)C1CCCCC1`, with 12.6 µM [rising, single point].
The result for `NC(=O)COc1ccc2c3c(c(=O)oc2c1)CCCCC3` reads 25.1 µM [rising, single point].
Then `CCc1nc2oc3cc(OC)ccc3c(=O)c2c(=O)n1Cc1ccco1`, with 10 µM [rising, single point]; and `COc1ccc(OC)c(S(=O)(=O)n2cnc3cc(C)c(C)cc32)c1`, with 15.8 µM [rising, partial curve]; and `CCCCN(CC)CCCNC(=O)c1cc2cc3ccc(OC)cc3nc2o1`, with 1.26 µM [rising, partial curve, poor fit].
For `COc1cc(NC(=O)CC(C)C)ccc1NC(=O)c1ccco1`, the AC50 was 3.16 µM [falling, partial curve, poor fit].
The result for `CCCc1nc2ccccc2n2cc3c(=O)n(C)c(=O)n(C)c3c12` reads 5.01 µM [rising, partial curve].
For `CCn1c(=N)n(CC(=O)OC)c2ccccc21`, the AC50 is 7.94 µM [falling, partial curve].
For `COC(=O)Nc1nc2ccc(SC(C)C)cc2[nH]1`, the concentration at half-maximal activity (AC50) was 2 µM [rising, full curve].
In the case of `CN(C)Cc1nc2ccccc2c(=O)n1Cc1nc(C(C)(C)C)cs1`, the AC50 was 6.31 µM [falling, full curve, poor fit].
Then `CC(C)C(=O)Nc1cccc2nsnc12`, with 25.1 µM [falling, partial curve, poor fit].
As to `COc1ccc(S(=O)(=O)NCCN2CCOCC2)c2ccccc12`, the AC50 is 0.00398 µM [falling, full curve, poor fit].
Then `O=C1c2ccccc2NC(c2ccc(F)cc2)N1Cc1ccco1` (stereo unspecified), with 3.98 µM [falling, single point]; and `COC(=O)C1=C(C)NC(C)=C(C(=O)OCCCN2CCC(c3ccccc3)(c3ccccc3)CC2)[C@H]1c1cccc([N+](=O)[O-])c1`, with 15.8 µM [falling, partial curve] and 3.98 µM [falling, full curve, poor fit].
`CN(Cc1ccccc1)C(=O)CN(C1CCCCC1)S(C)(=O)=O`: the AC50 is 3.98 µM [rising, partial curve].
The result for `CC(=O)Nc1ccc2nc(-c3cccs3)[nH]c2c1` reads 0.00398 µM [falling, full curve, poor fit]; that for `COCCn1c(=O)c(-c2cccs2)nc2cnc(N3CCOCC3)nc21`, 2 µM [rising, full curve].
Then `CC(C)Sc1nc2c(c(=O)[nH]c(=O)n2C)n1CCc1ccccc1`, with 2.51 µM [rising, partial curve].
Regarding `COc1ccc(-c2cc(C(=O)NCc3cccnc3)no2)cc1OC`, the half-maximal activity concentration (AC50) was 12.6 µM [rising, single point].
Then `O=C(Nc1ccc(Cl)cn1)C1CCCN1S(=O)(=O)c1ccc(Cl)cc1` (stereo unspecified), with 3.16 µM [falling, full curve].
`Cc1ccccc1C(=O)NC1CCN(Cc2nnnn2Cc2ccccc2)CC1`: the AC50 is 0.398 µM [falling, full curve].
The result for `NCCC[C@@H](CC(=O)N[C@@H]1CCCC[C@H]1C(=O)N[C@H](CC(=O)N[C@@H](CCC(=O)O)CC(=O)O)Cc1ccccc1)NC(=O)C[C@H](CO)NC(=O)[C@@H]1CCCC[C@H]1N` reads 7.94 µM [falling, partial curve, poor fit].
The result for `CCCCOc1ccc(/C(O)=C2/C(=O)C(=O)N(CCCOC)C2c2ccncc2)cc1C` (stereo unspecified) reads 0.00316 µM [falling, full curve, poor fit]; that for `CCN(c1ccccc1)c1cc(C)nc2nc(C)nn12`, 12.6 µM [rising, partial curve].
Then `O=C(CSc1ncc(-c2ccccc2)nn1)NCc1ccco1`, with 10 µM [falling, partial curve, poor fit]; and `COc1ccc(OC)c(NC(=O)NC2(C(F)(F)F)Oc3ccccc3O2)c1`, with 25.1 µM [falling, single point]; and `CN(C)C1NC(=O)c2cc(-c3ccccc3)sc2N1` (stereo unspecified), with 0.0631 µM [falling, partial curve, poor fit].
As for `CCc1ccccc1NC(=O)c1cnc2n(c1=O)CCS2`, the AC50 is 10 µM [rising, single point].
